According to publication PMC9486168, “Protein-protein interaction-based high throughput screening for adenylyl cyclase 1 inhibitors: Design, implementation, and discovery of a novel chemotype” (Frontiers in Pharmacology, 2022):

Experiments:
AC1-C1b/CaM = target: T1, AC1-C1b/CaM (Homo sapiens, UniProt P0DP23); test: AC1-C1b/CaM fluorescence polarization (FP) assay; format: binding
T1 construct: made in house; host or cells: E. coli BL21-CodonPlus (DE3)-RIPL

AC8-Nt/CaM = target: T2, AC8-Nt/CaM (Homo sapiens, UniProt P0DP23); test: AC8-Nt/CaM FP counterscreen assay; format: binding;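 note: fluorescence polarization of AC peptide binding GST-CaM in HEPES buffer with CaCl2, compound preincubated with CaM 30 min, peptide read after 2 h at room temperature in dark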
T2 construct: made in house; host or cells: E. coli BL21-CodonPlus (DE3)-RIPL

AC8-C2b/CaM = target: T3, AC8-C2b/CaM (Homo sapiens, UniProt P0DP23); test: AC8-C2b/CaM FP counterscreen assay; format: binding;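 note: fluorescence polarization of AC peptide binding to GST-CaM in HEPES buffer with KCl and 50 µM CaCl2, compound preincubated 30 min with GST-CaM, DMSO and calmidazolium as controls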
T3 construct: made in house; host or cells: E. coli BL21-CodonPlus (DE3)-RIPL

AC8/CaM PPI = target: T4, AC8/CaM PPI (Homo sapiens, UniProt P0DP23); test: AC8/CaM NanoBiT assay in HEK293T cells; format: cell-based, rat; conditions: thapsigargin-stimulated, AUC, read-out: Nanobit: AC8-CaM IC50 (μM ± SEM)
T4 construct: confirmed as an AC1/AC8 non-selective hit against full-length AC1- and AC8-CaM in the NanoBiT assay; The hCaM residues 1–149, residues 1–1,248 of rat AC8 (rAC8); expressed in transfected cells; host or cells: HEK293T, transient transfection

[1] = CellTiter-Glo 2.0 cell viability assay; format: cell-based; conditions: human, HEK293T cells, pH 7.4; at the compound's AC1/CaM NanoBiT IC50 concentration; read-out: % Viable Cells at AC1 IC50;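 note: luminescence read-out after 30 min compound exposure at 37 °C in HEPES-buffered HBSS, scaled to vehicle-treated cells as 100% and cell-free buffer wells as 0%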
Description: Cell viability measurements were performed using a BioTek Synergy 2 plate reader luminescence mode. HEK293T cells were cultured in Gibco DMEM supplemented with 10% FBS (Gibco) and 1% Penicillin/Streptomycin at 37°C and 5% CO2. Cells were plated at 25,000 cells/well in 96-well half area plates (Corning #3885) coated with poly-d-lysine and allowed to incubate for 40–44 h. On the day of the assay, culture media was aspirated and replaced with 25 μl of 2X compound in HBSS supplemented with 20 mM HEPES pH 7.4 or 2X vehicle (HBSS supplement with 20 mM HEPES pH 7.4). After adding the compound or vehicle, the plate was incubated at 37°C for 30 min. Next, 25 μl of 2X CellTiter-Glo 2.0 reagent (Promega, Madison, WI) was added, and the plate was mixed on an orbital shaker for 30 min to induce cell lysis and equilibrate the plate to room temperature. Luminescence was then measured for 30 min to establish a stable signal. The final three luminescence values from the 30-min read were averaged and used to assess cell viability. Cell viability for tested compounds was normalized relative to vehicle (100%) and wells containing buffer with no cells (0%). Data represent the mean of three independent experiments (N = 3) ± SEM.

CCCCCCCCCCCCCCCC[n+]1ccccc1 [Compound 10, Cetylpyridinium Cl]
Ki (AC1-C1b/CaM): 5.6 µM
IC50 (AC1-C1b/CaM; AC1-CaM FP IC50, μM (95% CI), 100 nM AC1-C1b, 100 nM GST-CaM, 95% CI in brackets): 23.4 µM
AC1-CaM FP % inhib (AC1-C1b/CaM; relative to 100 μM CDZ (100% inhibition), highest concentration tested): 25%
Ki (AC8-Nt/CaM): 5.7 µM
Ki (AC8-C2b/CaM): 5.5 µM
IC50 (AC8/CaM PPI): 14.4 ± 1.29 µM
viability at 30 min [1]: 96%
